Data reported in patent publication US20100330098A1, “METHODS TO REGULATE GLUCOSE METABOLISM” (priority 2009, published 2010).
For at least one compound, name, drawing or mass did not settle the structure.

Test system: IRS-2 promoter
Test: IRS-2 promoter/luciferase reporter gene assay in 293T cells
Format: cell-based
Details: 293T cells transfected with IRS-2 promoter/luciferase reporter gene (FIG. 23)

SMILES: CC(=O)N(O)CCCCCNC(=O)CCC(=O)N(O)CCCCCNC(=O)CCC(=O)N(O)CCCCCN [Deferoxamine]
- luciferase activity (IRS-2 promoter): inducible
